MtTrpRS: 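Enzyme assay of tryptophanyl-tRNA synthetase; the read-out is not stated. Target: Tryptophan-tRNA ligase, Mycobacterium tuberculosis (UniProt P9WFT3). Compounds at 10 µM. Higher most likely means stronger inhibition; the record gives no direction and few retests gave an IC50. About 65,000 compounds were tested under these conditions; 0.098% (about 64) showed 50% or more at least once.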
TcHisRS: 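Enzyme assay of histidyl-tRNA synthetase; the read-out is not stated. Target: Histidine-tRNA ligase, Trypanosoma cruzi CL Brener (UniProt Q4DA54). Concentration: 30 µM. The record gives no direction; compounds that gave an IC50 in retests scored well above the rest, so higher reads as stronger inhibition. Of about 69,000 compounds tested this way, about 31 (0.045%) reached 50% or more in at least one test.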
PfKRS1: 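Lysine-tRNA ligase, Plasmodium falciparum 3D7 (UniProt Q8IDJ8). Enzyme assay of the cytosolic lysyl-tRNA synthetase in 384-well plates, read by luminescence. Tested at 30 µM. Direction is inferred from only a few compounds that gave an IC50; most scored high, so higher reads as stronger inhibition. About 69,000 compounds were tested under these conditions; 0.071% (about 49) showed 50% or more at least once.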
CoaBC: 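Coenzyme A biosynthesis protein CoaBC, Mycobacterium tuberculosis (UniProt P9WNZ1). Enzyme assay of CoaBC with a phosphate dye (Biomol Green) read at 650 nm. Tested at 30 µM. Direction is inferred from only a few compounds that gave an IC50; most scored high, so higher reads as stronger inhibition. Most strong results did not repeat in a second test. Of about 67,000 compounds tested this way, about 40 (0.06%) reached 50% or more in at least one test.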
Pks13 thioesterase: 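Polyketide synthase Pks13, Mycobacterium tuberculosis (UniProt I6X8D2). Enzyme assay of the thioesterase domain of polyketide synthase 13; the read-out is not stated. Tested at 30 µM. The record gives no direction; the compounds picked for IC50 retests had high values, so higher reads as stronger inhibition. About 67,000 compounds were tested under these conditions; 0.46% (about 300) showed 50% or more at least once.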
Leishmania in macrophages: 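Cell assay of Leishmania donovani living inside macrophages; the read-out is not stated. Concentration: 30 µM. Higher reads as stronger inhibition (inferred: compounds with an IC50 in retests scored well above the rest). Of about 69,000 compounds tested this way, about 1,000 (1.5%) reached 50% or more in at least one test.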

Chains of the proteins cited; added tags and fusions are not shown. Residues count along the entry.
UniProt P9WFT3, whole entry: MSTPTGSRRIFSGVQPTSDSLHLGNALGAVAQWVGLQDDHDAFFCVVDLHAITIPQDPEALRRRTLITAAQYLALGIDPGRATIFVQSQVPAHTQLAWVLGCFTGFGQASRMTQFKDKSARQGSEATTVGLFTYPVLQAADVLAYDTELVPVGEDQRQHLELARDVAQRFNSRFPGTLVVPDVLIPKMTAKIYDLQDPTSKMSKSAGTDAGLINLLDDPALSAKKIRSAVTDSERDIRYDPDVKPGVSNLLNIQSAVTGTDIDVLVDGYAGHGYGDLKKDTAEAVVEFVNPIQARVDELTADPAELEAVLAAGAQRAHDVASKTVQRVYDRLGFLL
UniProt Q4DA54, 1-478: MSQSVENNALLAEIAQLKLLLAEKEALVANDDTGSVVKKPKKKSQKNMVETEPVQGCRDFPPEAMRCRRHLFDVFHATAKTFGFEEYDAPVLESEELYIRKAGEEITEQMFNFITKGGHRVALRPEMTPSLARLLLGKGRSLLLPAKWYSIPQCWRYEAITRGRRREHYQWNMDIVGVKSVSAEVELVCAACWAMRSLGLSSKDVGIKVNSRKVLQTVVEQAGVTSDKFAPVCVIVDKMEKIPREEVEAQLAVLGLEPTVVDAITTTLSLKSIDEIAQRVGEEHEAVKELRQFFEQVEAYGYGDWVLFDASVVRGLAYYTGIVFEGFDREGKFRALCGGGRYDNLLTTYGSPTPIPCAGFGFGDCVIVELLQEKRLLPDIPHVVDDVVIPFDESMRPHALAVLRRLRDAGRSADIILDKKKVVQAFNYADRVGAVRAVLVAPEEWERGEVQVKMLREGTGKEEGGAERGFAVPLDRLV
UniProt Q8IDJ8, 1-583: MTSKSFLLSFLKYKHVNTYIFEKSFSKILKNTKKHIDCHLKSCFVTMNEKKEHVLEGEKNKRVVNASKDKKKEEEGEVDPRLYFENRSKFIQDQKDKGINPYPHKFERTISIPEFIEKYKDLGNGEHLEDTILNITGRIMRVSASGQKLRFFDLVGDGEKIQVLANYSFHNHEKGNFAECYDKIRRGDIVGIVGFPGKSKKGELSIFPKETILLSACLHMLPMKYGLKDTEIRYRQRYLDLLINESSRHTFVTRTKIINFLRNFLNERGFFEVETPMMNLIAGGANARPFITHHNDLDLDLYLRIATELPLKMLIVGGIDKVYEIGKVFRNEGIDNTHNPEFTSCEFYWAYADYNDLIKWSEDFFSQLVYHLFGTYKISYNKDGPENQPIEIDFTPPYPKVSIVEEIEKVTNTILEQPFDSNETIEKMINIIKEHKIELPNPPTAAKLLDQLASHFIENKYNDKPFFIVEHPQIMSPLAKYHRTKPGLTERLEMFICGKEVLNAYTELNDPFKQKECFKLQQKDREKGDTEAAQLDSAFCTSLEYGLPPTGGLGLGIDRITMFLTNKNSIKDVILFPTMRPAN
UniProt P9WNZ1, whole entry: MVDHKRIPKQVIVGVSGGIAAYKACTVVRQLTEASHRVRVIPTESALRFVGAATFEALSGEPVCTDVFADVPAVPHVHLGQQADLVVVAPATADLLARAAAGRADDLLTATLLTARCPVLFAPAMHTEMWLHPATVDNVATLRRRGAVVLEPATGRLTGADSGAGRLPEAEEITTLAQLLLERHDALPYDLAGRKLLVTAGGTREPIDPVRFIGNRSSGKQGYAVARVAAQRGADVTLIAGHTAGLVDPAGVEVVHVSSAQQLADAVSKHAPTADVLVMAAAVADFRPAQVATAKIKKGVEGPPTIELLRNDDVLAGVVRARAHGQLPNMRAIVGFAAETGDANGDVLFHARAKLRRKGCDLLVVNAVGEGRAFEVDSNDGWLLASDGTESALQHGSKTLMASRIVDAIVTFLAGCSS
UniProt I6X8D2, whole entry: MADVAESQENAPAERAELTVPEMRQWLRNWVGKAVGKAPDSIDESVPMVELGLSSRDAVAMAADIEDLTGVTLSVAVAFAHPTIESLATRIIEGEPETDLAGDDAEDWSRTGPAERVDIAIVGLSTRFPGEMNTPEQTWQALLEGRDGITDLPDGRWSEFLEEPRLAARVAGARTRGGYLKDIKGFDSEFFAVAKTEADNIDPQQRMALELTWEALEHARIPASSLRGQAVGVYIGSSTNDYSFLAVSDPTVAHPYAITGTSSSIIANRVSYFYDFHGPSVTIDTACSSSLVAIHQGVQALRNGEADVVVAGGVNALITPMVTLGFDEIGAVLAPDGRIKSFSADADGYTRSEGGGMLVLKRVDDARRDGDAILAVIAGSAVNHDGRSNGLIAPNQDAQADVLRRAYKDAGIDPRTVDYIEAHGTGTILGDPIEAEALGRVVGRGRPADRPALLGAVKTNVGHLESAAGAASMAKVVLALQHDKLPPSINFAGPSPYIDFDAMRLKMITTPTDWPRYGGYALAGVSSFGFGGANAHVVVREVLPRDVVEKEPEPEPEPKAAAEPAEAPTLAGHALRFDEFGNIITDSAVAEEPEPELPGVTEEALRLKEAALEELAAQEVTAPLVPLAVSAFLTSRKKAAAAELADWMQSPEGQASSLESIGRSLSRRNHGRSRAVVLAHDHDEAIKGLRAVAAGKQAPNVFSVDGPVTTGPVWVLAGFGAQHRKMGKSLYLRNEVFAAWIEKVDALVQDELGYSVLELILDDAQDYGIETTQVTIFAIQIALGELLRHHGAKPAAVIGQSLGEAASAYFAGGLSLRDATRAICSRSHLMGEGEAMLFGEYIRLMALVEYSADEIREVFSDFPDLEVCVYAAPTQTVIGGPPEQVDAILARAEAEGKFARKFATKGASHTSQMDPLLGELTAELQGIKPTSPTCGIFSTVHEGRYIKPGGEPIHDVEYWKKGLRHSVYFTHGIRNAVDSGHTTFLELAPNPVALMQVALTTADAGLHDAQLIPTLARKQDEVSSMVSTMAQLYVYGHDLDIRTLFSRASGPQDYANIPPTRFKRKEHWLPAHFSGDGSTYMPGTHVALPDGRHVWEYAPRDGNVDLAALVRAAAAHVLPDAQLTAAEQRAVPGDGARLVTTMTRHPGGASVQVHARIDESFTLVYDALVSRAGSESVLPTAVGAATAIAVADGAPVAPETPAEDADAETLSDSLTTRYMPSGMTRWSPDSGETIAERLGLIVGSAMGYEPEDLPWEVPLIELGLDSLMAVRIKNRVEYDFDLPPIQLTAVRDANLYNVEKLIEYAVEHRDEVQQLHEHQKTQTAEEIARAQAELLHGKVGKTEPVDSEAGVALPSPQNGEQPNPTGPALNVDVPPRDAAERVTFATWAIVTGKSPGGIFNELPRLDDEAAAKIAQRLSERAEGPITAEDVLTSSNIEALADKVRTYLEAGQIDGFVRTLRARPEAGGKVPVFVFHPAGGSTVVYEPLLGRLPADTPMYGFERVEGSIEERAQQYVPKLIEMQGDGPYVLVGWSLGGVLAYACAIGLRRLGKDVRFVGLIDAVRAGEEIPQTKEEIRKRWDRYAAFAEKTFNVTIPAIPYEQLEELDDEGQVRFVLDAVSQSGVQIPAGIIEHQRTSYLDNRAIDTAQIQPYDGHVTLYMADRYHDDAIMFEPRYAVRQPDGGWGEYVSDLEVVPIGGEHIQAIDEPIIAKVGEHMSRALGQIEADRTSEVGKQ

Values are the deposited “Percent Effect”, in %. How 0% and 100% were set is not recorded. Most values in the screen are low, and negative values occur. The compounds are a random part of those screened.

Result for CN1CSC[C@H]1C(=O)N1CCC(CCc2ccccc2)CC1 was MtTrpRS: -0.9046%; TcHisRS: 14.81%; PfKRS1: 2.495%; CoaBC: 6.503%; Pks13 thioesterase: -31.49%; Leishmania in macrophages: 19.87%.
Result for Cc1ccc(OCC(=O)N(C)Cc2ccc(F)cc2)cn1 was MtTrpRS: -2.593%; TcHisRS: 3.448%; PfKRS1: 6.746%; CoaBC: 0.9823%; Pks13 thioesterase: -16.55%; Leishmania in macrophages: -15.24%.
Result for CN(C)c1ccc(NC(=O)N2CCCC2c2ccsc2)cn1 (stereo not shown) was MtTrpRS: -4.161%; TcHisRS: 4.762%; PfKRS1: 6.043%; CoaBC: -3.926%; Pks13 thioesterase: -2.363%; Leishmania in macrophages: 4.564%.
Result for CC(C)[C@@H]1CN(C(=O)CN(C)Cc2ccc(F)cc2)C[C@H]1C(=O)O was MtTrpRS: -0.5757%; TcHisRS: -1.235%; PfKRS1: -2.541%; CoaBC: -1.84%; Pks13 thioesterase: -0.5761%; Leishmania in macrophages: 12.43%.
Result for c1ccc(-c2nnc(CN3CCCC(Cn4cncn4)C3)o2)cc1 (stereo not shown) was MtTrpRS: -0.9358%; TcHisRS: 6.158%; PfKRS1: 0.08701%; CoaBC: 5.263%; Pks13 thioesterase: -6.18%; Leishmania in macrophages: 19.77%.
Result for [H][C@]12CC[C@]([H])(CN(C(=O)N(C)C)C1)N(C(=O)CCCn1cncn1)C2 was Leishmania in macrophages: 29.76%.
Result for Cc1ccc(Cc2cnc(NC(=O)C3CNC(=O)N3)s2)cc1F (stereo not shown) was MtTrpRS: 0.4873%; TcHisRS: 4.887%; PfKRS1: 5.178%; CoaBC: 8.616%; Pks13 thioesterase: 4.871%; Leishmania in macrophages: 20.51%.
Result for CCc1ccc(CN2CCOC(Cc3cccc(F)c3)C2)nc1 (stereo not shown) was MtTrpRS: 5.034%; TcHisRS: -1.786%; PfKRS1: 8.653%; CoaBC: 4.906%; Pks13 thioesterase: -6.29%; Leishmania in macrophages: 38.68%.
Result for CCc1nc(Nc2cccc(C(=O)NC)c2)c2c(n1)c(C)nn2CC was MtTrpRS: -0.3886%; TcHisRS: 0.8696%; PfKRS1: 1.375%; CoaBC: 3.233%; Pks13 thioesterase: -3.033%; Leishmania in macrophages: 36.34%.
Result for COCC(=O)N1CCN(Cc2nnc(C(C)(C)C)o2)CC1 was MtTrpRS: -3.616%; TcHisRS: 2.956%; PfKRS1: 4.359%; CoaBC: -1.282%; Leishmania in macrophages: 38.56%.
Result for Cc1cccnc1NCCNC(=O)c1cnc(-c2ccccn2)nc1O was MtTrpRS: 2.703%; TcHisRS: -0.8772%; PfKRS1: 0.5548%; CoaBC: 6.042%; Pks13 thioesterase: 6.862%; Leishmania in macrophages: 81.9%.
Result for CC(=O)Nc1cc(C(C)(C)C)sc1C#N was MtTrpRS: -3.43%; TcHisRS: 4.255%; PfKRS1: 7.463%; CoaBC: 3.074%; Pks13 thioesterase: -23.88%; Leishmania in macrophages: 16.31%.
Result for Cc1cccc(-c2nc(CN3CCOCS3(=O)=O)c(C)o2)c1 was MtTrpRS: -4.204%; TcHisRS: 0%; PfKRS1: 3.882%; CoaBC: -4.139%; Pks13 thioesterase: 22.32%; Leishmania in macrophages: 18.49%.
Result for Cn1nc(CN2CCCC2)c2c1CN(C(=O)c1cnccn1)CC2 was MtTrpRS: -2.729%; TcHisRS: 1.093%; PfKRS1: -0.6569%; CoaBC: -8.497%; Pks13 thioesterase: -30.74%; Leishmania in macrophages: 23.82%.

Once more, the final 2:

structure	MtTrpRS	TcHisRS	PfKRS1	CoaBC	Pks13 thioesterase	Leishmania in macrophages
Cc1cccc(-c2nc(CN3CCOCS3(=O)=O)c(C)o2)c1	-4.204	0	3.882	-4.139	22.32	18.49
Cn1nc(CN2CCCC2)c2c1CN(C(=O)c1cnccn1)CC2	-2.729	1.093	-0.6569	-8.497	-30.74	23.82

From ChEMBL document CHEMBL3988442, “University of Dundee, Small-Polar-MMV Screening Library” (2021).